From patent publication US20200157147A1 (SEOUL NATIONAL UNIVERSITY HOSPITAL, published 2020)
Results are given in words; binding and its absence hold for the method and conditions named. Binding seen in cells or lysates may run through a third protein. Some binding calls cover weakened binding; strength is not graded here.

Amino acid sequences for entries named in this document (tags omitted). Residues count along the entry.
UniProt Q9HD89, residues 19-108: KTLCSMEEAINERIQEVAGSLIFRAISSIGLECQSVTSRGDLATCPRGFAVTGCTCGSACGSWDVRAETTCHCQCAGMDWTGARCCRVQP

Biological target: mFc-hResistin (human) (UniProt Q9HD89)
Assay: competition in the Fc-bead pull-down from THP-1 lysate: the peptide blocks CAP1 from mFc-hResistin; western blot with a-CAP1(M30)

| binding | Binder |
| --- | --- |
| binds | GPPPPPVSTS [pep10 (peptide of SEQ ID NO: 1)] |
| binds | PPPPGAAAAAVSTSSGSDES [pro2A (peptide of SEQ ID NO: 5)] |
